Patent US20230331767A1, “TARGETED STEROID COMPOUNDS” (priority 2020, published 2023)
For at least one compound, name, drawing or mass did not settle the structure.

Tested on: macrophage
Assay: Flow cytometry of macrophage, CD 86 expression (M1 marker)
Type: cell-based, ND4 mice
Conditions: 10 nanomolar free dexamethasone; treatment for 24 hours
Procedure: FIG. 6 is an example of compound 101 in flow cytometry of macrophage gated on F4/80 to show CD 206 expression (a marker for M2, anti-inflammatory macrophages). Briefly, 1.5 mL of 3% thioglycolate were injected into the intraperitoneal cavity of 12-week-old ND4 mice. Three days later the macrophages were isolated by intraperitoneal lavage and plated in a 12-well dish and incubated at 37° C./5% CO2. […] 1 or 20 nanomolar of the compound in FIG. 1 plus 100-fold excess folate-glucosamine (to show receptor-specific binding) or untreated control or 10 nanomolar free dexamethasone (to show the effect of the free drug) and allowed to incubate at 37° C./5% CO2 for the allotted time. […] The samples were then washed 3 times with ice-cold 1% FBS in PBS before being analyzed by flow cytometry.
FIG. 8 is an example of Compound 101 in flow cytometry of macrophage to show CD 86 expression with controls.

C[C@@H]1C[C@H]2[C@@H]3CCC4=CC(=O)C=C[C@]4(C)[C@@]3(F)[C@@H](O)C[C@]2(C)[C@@]1(O)C(=O)CO [free dexamethasone, dexamethasone, reference compound]
CD 86 expression (marker for M1, pro-inflammatory macrophages): no observable differences
